No constants are given. Whether binding was seen depends on the method and setting. Binding seen in cells or lysates may run through a third protein. These calls come from enrichment with a bait or labelling near it, and not all partners need be listed.

The experiment addresses Nascent polypeptide-associated complex (NAC) protein of Picrophilus torridus (Picrophilus torridus). As to the kind of experiment: affinity purification with mass spectrometry; His6-PtNAC held on Co2+-NTA-agarose beads in a column; 10 ml P. torridus cell lysate added, overnight at 4°C on a rocker; washed with 1X PBS; eluted with 1X PBS with 200 mM imidazole; SDS-PAGE and LC-MS/MS; 5% false-discovery rate cutoff, minimum of two peptides per protein; only the target ….

B1: Translation initiation factor 5A (protein, UniProt Q6L150 1-129)
chain: MSWTEAEVRELKVGRYILIDDSPCRIVDITMSKPGKHGEAKGRIVAIGVFDNQKHSVVYPVKHKVKVPVITKKNAQVLSIANNEVQLMDSETFETFVIPVDPADLEKIKPGMEVPYWEAMGQRKIMLQN
On to B1, for which the binding result is “binds”.

B2: Glutamate dehydrogenase (protein, UniProt Q6KZF2 1-415)
chain: MEDLDPFTISRQQLQKAAKVMNLDKQALEILSYPREILQVSIPVKMDSGEVKVFTGFRVHYNNARGPTKGGIRYYEKENLSEVMALSAWMTWKTALLDLPLGGAKGGIICNPKELSQGELERLSRGYIDAIADFIGPDKDIPAPDVYTNPQIMAWMMDEYEKVMRRSSPGVITGKPLAVGGSEGRGDATAKGGMYVLREAARSIGLDLSKAKVAVQGFGNAGQYAVKFATEMFGAKVVAVSDSTGGIYAKDGVNYEKLLEHKRKDGTVMNYDGSENISEEEVLEQDVDVLIPAAIEDQIRGDNASKIKAKIILELANGPTTPEADEILYKNNVLVLPDFLSNAGGVTVSYFEWVQNVTGDYWDEETVYSKLDKKMTAATRSVLETSKRYEVDPRTAAYIIAVKKVADAMKARGWY
With B2, the binding result is given as “binds”.

B3: Homoserine dehydrogenase (protein, UniProt Q6KZ50 1-328)
chain: MRISIIGLGHIGLSVLDIIKSRNDDYRKNNNGISIVSASDSKLTLYNENGLDPGKIINYKKSKRLEEIDYEKIKFDEIFEIKPDVIVDVSPATKDGIRGKNLYINAFEHGIDIVTANKAPLALHWHDIMDSASKNRRIIRYEASVGGGVPLFNLRQFCTMSSRIINFTGLVSSTINYVLNQELSGVGFLDAVKIAQNMGIAETDYSDDTMGLDSARKTVILANSLFNKDITLRDVTYDGIENIDISSMDNEKVYRVVAMIENNGGFHAESKIRAFSRNDFLGMISPLSMAYSMETDINDNINIFENHDGPLQTAAQVVNDVMLLKYKI
On to B3, for which the binding result was “binds”.

B4: Elongation factor 1-alpha (protein, UniProt Q6L202 1-424)
chain: MASEKPHMNLVIIGHVDHGKSTLVGRLLFEHGEIPQHIIDEYKKEAEEKGKATFEFAWVMDRFKEERERGVTIDLTHRKFETDKYYFTIIDAPGHRDFVKNMITGTSQADAAVLVVSAREGEGVMAQTKEHAFLARTLGVPQLIAVVNKMDATQPPYSEKRFNEVKDEITKLLTPIGFKNVPIIPLSGYKGDNIMKPSPNLSWWKGPTLMEALNALQVPAKPVDKPLRLPVEDVYSITGIGTVPVGRIETGVMKVGDKVIFMPANKAGDVKSIEMHHEPMQQAGPGDNIGFNVRGIAKNELKRGDVCGPANNPPTVVKGFTAQIVVLNHPSVIAAGYKPVFHVHTAQVACRIDEIVKTINPKDGTTLKEKPDFIKTGDIAIVKVVPDRALVIEKVSEFPQLGRFAIRDMGMTVAAGQCIDLEKA
As to B4, the binding result is “binds”.

B5: Protein secretion chaperonin CsaA (protein, UniProt Q6L208 1-107)
chain: MITYNDFSKIDIRVGIIKEVSDFKEAIKPAYKLKIYFGDIIGYKNSSAQITNYKKDELINKKIIAVVNFPPKQIANFISEVLVLGAITGDGVKLLTPDGGEPGDKIA
With B5, the binding result was “binds”.

B6: 50S ribosomal protein L12 (protein, UniProt Q6L1X7 1-101)
chain: MEYIYGALLLHSAGKEIDENNLKKILEDAGVNADEARLKSLVESMKNINIEDVLKNAAAAPVAAPAPAKEEKKEEKKEEKKEEKKEESEADAMQGLSSLFG
As for B6, the binding result is on record as “binds”.

Source of the values: PMC7264160.
